# Results taken from the supplement of paper PMC3334620.
# Over roughly 33,000 sequences, “E-score (-0.5 to 0.5)” has its median near -0.0014; the highest 2% begin near 0.25. The list shows a part of the results.
# Molecular target: T1, Cad1 (UniProt P24813)
# T1 sequence: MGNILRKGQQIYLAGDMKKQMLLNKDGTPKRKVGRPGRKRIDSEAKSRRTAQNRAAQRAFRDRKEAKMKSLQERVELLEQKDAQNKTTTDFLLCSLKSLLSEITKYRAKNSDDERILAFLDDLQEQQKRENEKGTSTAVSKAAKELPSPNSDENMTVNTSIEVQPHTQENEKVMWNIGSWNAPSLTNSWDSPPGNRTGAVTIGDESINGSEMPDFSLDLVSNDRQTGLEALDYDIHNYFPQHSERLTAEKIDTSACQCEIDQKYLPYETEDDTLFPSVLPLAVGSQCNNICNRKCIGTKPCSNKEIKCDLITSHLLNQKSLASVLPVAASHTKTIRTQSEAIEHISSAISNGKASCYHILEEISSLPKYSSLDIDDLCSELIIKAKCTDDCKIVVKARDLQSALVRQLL
# Test: PBM E-score (8-mer binding enrichment) (E-score (-0.5 to 0.5)); higher = stronger / more preferred TF binding
# Conditions: protein concentration: 100 nM; construct: GST-full length
# Outline: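 Each ungapped eight-base word and its reverse complement, pooled, received an E-score from the Universal PBM Analysis Suite. Underlying scans, normalised with masliner, recorded fluorescent anti-GST bound to GST-tagged yeast transcription factors. These were applied at about 100-200 nM to universal all-10-mer Agilent arrays double-stranded by primer extension.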
row,Sequence,PBM E-score
1,GATATACA,0.0899
2,AGAGTCCG,-0.0441
3,AGAGTTCC,-0.0891
4,ACCTTGTC,-0.158
5,ACTCCGTG,-0.0771
6,CGAGGTCC,-0.176
7,AAACCTCT,-0.0674
8,ATTCCATG,0.019
9,GACCATCC,-0.138
10,AAACTGGG,-0.0371
11,CTATGCCC,-0.173
12,ATTACGCA,0.247
13,AGGGGCCG,-0.251
14,ATGCATTG,0.11
15,CCGATAAA,0.0613
16,CACAGACA,0.208
17,CTCCTAAG,-0.168
18,GGGTGATA,-0.246
19,ACTACACA,0.197
20,AACAGGTC,-0.118
21,ATGAAAAC,0.211
22,TGACAGAA,0.081
23,CGCGATAA,0.228
24,CAGATGGA,0.0795

row,Sequence,PBM E-score
1,ACTCGTTG,-0.0914
2,TGTTCGAA,0.186
3,AACATGAA,-0.00852
4,GAGGTTGC,-0.255
5,AGAACTCC,-0.157
6,GTGGGGTA,0.102
7,CCCTTCGA,0.0124
8,GAAATCGA,0.0829
9,TCCCGGAA,0.183
10,AAGACAGC,-0.0251
11,ATTTTAAC,0.0574
12,ATTCACCC,-0.111
13,AGAATCCT,-0.0342
14,TAGTGTCA,0.171
15,AGCTTCAA,0.0577
16,CGCTCTCA,-0.0678
17,AATAGGAT,0.247
18,TACGTTGA,0.0119
19,CTCGTTTC,-0.0328
20,CCGTAATA,0.113
21,CGAGGCAC,-0.121
22,CGAGAGAA,0.0965
23,GGAATTAC,0.21
24,ATAGGTTC,0.0253

row,Sequence,PBM E-score
1,GTTCGAAA,0.241
2,AAGTTTTA,0.121
3,CGTTATCA,-0.0179
4,CTTATGAA,0.00813
5,TACAGTAA,0.0528
6,AACCCCCT,-0.39
7,CATGGAAG,-0.0598
8,ATGACGGG,-0.0192
9,ATTACATG,0.301
10,ACTCTGTA,-0.171
11,AAGCAATC,0.00394
12,AAAGTAGC,-0.0802
13,CCAACGCG,0.0544
14,AACGCCAT,-0.0315
15,CACGAAGG,-0.0679
16,CTGCATGA,-0.111
17,AACGACGT,0.121
18,ATGACCAT,0.0645
19,CATCACAG,-0.00307
20,CCCGGCGA,0.0311
21,CCCCTAAC,-0.15
22,GAGCAAAC,0.0254
23,GAAGCGGA,-0.0376
24,AGGACTAT,-0.14

row,Sequence,PBM E-score
1,GCAAACGA,0.144
2,ACGCGAGA,0.0765
3,CTATCTTC,-0.00322
4,GGAGTACC,-0.11
5,ATGAAATC,-0.00994
6,ACACCCGA,0.134
7,GCTGAACC,-0.0931
8,AAGATTCC,0.15
9,ACCACTGA,-0.11
10,ATATAGTC,0.249
11,CCCCCTAC,-0.362
12,CCAATGAA,-0.00068
13,CGTGTATC,0.0347
14,GGAACCGA,0.0676
15,CCCTCGTA,-0.0776
16,CGCCCGGC,-0.198
17,AGGGCGTG,-0.139
18,AGTATATG,0.0763
19,CATTGACA,-0.215
20,CAAGCGTA,-0.0711
21,CACCTCGC,0.0354
22,AGTTATTG,0.127

# Quoted at random: 3 records from the list.
row,Sequence,PBM E-score
7,CATGGAAG,-0.0598
4,ACCTTGTC,-0.158
5,AGAACTCC,-0.157
